Some of the results follow.
compound: CCCS(=O)(=O)Nc1ccc(F)c(C(=O)c2c[nH]c3ncc(-c4ccc(Cl)cc4)cc23)c1F [vemurafenib]; test: log2 fold change, soluble protein after heating vs DMSO (PISA); higher = thermal stabilisation; K562 cells, 10 uM, 30 min; active = over 0.2 and 3.5 SD of the protein, either way, in both replicates (recomputed)
Procedure, shortened: (§1)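 K562 cells at 2×10^6 cells/mL were treated with 10 μM compound for 30 min. Aliquots were heated for 3 min across 48°C-58°C, pooled, and extracted in PBS with 0.5% NP-40 at 4°C; soluble protein was the supernatant after 21,000xg for 90 min. Soluble protein was quantified by TMTpro 16plex LC-MS/MS with channel sums equalised, and reported as log2 fold change in thermal stability against DMSO controls, with values from duplicates.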

The chains behind the UniProt entries cited, without tags or fusion partners. Where a name states a change or a piece, a line headed by the entry shows the natural chain unless it says otherwise.
UniProt Q96RV3: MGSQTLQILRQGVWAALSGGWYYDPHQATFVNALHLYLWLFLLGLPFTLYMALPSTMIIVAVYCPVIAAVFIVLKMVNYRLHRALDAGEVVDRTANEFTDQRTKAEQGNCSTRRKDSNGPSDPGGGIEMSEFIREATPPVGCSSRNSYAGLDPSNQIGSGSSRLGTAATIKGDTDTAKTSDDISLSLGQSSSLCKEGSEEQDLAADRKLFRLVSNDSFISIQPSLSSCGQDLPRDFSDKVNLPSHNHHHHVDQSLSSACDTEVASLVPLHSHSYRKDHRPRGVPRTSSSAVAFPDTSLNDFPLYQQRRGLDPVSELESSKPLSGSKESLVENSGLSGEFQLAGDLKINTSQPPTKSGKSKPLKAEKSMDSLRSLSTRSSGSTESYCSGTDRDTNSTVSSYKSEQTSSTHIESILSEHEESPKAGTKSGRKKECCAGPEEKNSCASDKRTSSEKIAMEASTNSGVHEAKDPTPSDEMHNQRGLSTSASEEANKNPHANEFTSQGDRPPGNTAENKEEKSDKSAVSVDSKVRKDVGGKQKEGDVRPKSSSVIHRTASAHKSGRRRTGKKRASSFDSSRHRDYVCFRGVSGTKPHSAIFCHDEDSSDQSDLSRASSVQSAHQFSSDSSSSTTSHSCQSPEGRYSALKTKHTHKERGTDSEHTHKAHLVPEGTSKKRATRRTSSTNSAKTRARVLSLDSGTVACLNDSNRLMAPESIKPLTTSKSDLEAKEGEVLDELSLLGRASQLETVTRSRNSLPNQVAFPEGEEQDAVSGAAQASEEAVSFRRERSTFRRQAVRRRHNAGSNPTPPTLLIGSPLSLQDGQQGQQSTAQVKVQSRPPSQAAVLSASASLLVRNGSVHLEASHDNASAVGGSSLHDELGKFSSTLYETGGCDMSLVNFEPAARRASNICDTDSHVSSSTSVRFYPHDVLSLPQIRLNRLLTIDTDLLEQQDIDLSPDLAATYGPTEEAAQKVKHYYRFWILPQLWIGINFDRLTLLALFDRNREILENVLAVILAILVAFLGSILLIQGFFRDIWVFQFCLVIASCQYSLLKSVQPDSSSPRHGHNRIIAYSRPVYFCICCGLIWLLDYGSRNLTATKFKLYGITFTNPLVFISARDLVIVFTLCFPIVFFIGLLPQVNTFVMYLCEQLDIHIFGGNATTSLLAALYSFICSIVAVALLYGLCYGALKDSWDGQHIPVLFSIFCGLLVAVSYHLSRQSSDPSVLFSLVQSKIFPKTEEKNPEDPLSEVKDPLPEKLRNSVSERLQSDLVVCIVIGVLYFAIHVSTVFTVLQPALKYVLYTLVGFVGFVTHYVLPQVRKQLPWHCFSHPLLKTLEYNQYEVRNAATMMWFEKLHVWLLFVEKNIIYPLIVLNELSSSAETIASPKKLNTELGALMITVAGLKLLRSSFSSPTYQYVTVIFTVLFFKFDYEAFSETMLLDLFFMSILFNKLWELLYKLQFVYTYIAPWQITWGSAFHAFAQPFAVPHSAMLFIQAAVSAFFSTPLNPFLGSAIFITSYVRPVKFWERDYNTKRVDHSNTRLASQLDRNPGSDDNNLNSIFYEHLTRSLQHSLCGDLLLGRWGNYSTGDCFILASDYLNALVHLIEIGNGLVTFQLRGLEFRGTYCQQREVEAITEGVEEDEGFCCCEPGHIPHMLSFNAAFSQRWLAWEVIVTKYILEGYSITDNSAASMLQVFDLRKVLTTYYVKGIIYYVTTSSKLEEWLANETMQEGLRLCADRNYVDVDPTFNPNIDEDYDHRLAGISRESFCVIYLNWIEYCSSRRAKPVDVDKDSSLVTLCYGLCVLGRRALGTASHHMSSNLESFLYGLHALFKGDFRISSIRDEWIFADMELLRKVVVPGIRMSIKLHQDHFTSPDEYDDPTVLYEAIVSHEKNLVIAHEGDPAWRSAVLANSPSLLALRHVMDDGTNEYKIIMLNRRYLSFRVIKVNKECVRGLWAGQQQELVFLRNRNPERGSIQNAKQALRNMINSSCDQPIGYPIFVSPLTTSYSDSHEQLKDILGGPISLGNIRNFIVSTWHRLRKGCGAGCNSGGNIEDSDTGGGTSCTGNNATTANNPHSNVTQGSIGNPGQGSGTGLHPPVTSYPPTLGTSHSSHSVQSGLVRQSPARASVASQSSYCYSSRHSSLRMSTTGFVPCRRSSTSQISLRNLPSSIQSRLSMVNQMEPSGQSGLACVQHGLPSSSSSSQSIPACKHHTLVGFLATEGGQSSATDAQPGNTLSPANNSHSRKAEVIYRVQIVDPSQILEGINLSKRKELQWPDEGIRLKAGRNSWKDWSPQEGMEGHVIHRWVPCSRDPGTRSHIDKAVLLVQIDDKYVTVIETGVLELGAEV
UniProt P29122: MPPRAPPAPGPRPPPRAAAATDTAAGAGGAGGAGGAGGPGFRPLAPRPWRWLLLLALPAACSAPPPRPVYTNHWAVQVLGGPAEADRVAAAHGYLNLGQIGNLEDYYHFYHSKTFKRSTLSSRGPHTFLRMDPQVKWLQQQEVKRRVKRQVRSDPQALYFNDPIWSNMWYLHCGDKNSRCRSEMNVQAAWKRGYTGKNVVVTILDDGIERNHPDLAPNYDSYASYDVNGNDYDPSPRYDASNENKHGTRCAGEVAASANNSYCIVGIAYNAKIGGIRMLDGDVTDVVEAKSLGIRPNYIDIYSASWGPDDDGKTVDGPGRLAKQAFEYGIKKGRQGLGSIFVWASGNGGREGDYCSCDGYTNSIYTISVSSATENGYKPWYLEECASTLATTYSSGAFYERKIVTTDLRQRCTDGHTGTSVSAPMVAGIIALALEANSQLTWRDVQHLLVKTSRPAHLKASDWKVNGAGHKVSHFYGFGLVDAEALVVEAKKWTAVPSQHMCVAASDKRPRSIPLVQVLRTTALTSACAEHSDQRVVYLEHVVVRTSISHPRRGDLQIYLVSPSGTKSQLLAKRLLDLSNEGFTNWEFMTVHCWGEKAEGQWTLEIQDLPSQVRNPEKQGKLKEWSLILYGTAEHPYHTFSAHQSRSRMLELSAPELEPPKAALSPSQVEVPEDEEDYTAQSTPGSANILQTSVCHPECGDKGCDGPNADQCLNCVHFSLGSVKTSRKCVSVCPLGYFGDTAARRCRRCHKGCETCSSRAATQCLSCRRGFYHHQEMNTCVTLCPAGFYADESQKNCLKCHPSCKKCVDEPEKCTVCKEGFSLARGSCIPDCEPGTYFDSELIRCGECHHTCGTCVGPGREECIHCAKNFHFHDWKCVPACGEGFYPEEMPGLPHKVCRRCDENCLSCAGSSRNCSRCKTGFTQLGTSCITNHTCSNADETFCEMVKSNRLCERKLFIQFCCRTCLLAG
UniProt Q8TE04: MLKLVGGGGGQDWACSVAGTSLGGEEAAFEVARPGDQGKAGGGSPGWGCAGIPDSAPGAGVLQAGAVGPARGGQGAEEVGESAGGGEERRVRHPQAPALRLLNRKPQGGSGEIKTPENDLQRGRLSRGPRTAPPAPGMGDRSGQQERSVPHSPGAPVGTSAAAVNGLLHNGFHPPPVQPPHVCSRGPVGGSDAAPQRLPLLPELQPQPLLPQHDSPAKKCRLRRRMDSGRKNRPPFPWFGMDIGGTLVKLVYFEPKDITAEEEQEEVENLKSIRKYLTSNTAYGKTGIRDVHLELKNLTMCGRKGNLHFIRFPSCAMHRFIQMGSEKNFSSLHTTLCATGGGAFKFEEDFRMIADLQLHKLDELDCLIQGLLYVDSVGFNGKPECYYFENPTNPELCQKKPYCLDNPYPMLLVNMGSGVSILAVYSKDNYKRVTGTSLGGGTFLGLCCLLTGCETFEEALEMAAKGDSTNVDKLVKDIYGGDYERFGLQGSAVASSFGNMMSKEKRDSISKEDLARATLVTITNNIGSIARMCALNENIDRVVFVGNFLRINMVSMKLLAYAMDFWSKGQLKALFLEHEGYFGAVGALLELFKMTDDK
UniProt Q9H6A9: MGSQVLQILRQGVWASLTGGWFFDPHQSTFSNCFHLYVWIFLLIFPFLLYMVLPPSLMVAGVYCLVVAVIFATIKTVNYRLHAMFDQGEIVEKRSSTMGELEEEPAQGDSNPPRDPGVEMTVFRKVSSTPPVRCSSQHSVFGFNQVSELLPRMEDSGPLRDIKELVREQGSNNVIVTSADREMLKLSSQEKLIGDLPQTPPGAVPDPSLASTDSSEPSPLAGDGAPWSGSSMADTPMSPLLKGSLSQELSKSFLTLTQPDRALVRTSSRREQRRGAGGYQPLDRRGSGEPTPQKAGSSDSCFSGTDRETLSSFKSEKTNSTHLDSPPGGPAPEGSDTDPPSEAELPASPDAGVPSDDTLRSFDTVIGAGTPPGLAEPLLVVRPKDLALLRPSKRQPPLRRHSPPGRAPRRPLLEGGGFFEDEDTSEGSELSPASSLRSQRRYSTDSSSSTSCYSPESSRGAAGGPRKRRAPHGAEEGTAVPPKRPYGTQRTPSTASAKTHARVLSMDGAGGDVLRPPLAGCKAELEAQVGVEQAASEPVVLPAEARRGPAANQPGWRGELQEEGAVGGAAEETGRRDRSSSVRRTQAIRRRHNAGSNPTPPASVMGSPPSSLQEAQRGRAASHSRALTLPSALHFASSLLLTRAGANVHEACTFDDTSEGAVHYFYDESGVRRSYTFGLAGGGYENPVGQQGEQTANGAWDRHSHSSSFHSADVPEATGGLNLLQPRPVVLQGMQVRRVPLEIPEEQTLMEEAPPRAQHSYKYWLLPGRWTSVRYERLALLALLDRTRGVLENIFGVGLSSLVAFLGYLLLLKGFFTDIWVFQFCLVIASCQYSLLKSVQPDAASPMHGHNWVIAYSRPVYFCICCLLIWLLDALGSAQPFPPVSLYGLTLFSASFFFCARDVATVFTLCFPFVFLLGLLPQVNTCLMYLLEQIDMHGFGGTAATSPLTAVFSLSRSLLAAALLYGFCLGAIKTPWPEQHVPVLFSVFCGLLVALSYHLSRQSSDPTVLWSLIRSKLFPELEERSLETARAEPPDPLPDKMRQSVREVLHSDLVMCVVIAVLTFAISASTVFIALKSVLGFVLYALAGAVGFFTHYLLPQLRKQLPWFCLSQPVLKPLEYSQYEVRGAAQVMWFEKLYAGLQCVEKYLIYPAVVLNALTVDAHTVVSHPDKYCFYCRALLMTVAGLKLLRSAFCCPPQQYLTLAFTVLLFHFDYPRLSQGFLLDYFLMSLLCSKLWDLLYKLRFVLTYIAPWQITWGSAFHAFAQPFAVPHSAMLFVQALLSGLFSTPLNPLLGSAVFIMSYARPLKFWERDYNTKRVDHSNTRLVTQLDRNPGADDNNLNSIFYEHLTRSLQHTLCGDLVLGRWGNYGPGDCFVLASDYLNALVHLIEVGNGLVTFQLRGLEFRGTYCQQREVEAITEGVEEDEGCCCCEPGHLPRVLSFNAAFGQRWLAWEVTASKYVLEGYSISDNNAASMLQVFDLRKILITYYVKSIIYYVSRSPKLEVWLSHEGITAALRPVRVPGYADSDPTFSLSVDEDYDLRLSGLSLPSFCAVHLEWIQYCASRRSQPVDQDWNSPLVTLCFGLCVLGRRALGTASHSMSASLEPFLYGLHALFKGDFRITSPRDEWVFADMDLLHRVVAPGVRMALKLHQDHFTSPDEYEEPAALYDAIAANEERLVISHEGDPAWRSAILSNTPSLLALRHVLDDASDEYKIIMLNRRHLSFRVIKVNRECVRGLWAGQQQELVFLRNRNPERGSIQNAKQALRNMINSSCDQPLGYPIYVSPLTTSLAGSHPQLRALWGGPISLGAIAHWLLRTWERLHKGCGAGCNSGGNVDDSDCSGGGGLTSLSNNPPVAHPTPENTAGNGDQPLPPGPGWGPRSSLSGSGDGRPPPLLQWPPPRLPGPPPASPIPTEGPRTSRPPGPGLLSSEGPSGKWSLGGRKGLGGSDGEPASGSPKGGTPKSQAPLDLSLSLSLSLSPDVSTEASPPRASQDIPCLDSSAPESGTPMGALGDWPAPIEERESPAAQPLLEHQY
UniProt Q16342: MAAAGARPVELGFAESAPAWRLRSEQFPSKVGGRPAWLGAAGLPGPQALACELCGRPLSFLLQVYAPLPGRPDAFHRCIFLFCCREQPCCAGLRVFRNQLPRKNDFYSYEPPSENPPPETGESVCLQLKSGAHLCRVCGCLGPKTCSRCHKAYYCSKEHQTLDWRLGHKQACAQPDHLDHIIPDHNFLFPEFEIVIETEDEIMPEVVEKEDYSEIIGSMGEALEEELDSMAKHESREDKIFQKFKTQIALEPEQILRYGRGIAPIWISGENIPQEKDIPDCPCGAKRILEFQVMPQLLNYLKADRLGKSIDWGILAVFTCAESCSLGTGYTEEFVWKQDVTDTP
UniProt Q86U42: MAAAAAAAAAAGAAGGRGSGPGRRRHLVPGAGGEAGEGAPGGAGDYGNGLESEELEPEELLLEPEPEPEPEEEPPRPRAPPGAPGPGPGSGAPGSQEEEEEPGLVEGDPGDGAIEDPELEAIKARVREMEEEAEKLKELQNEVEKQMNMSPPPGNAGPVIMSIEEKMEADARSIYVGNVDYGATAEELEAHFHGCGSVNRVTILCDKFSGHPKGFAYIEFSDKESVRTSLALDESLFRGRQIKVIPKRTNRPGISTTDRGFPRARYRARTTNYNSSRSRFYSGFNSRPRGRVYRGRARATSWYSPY

Target | log2 fold change
PDIA4, A0A499FI48 | inactive: -0.013
PCNX1 (UniProt Q96RV3) | inactive: 0.025
PCSK6 isoform 7 (UniProt P29122) | inactive: -0.088
PAGE4 (UniProt O60829) | inactive: -0.022
PDXP (UniProt B1AHD3) | inactive: -0.1
PDE4DIP (UniProt E9PS60) | inactive: -0.214
PANK1 (UniProt Q8TE04) | inactive: 0.026
PALM (UniProt O75781) | inactive: -0.063
PAN2 (UniProt Q504Q3) | inactive: -0.128

compound: CCCS(=O)(=O)Nc1ccc(F)c(C(=O)c2c[nH]c3ncc(Cl)cc23)c1F; test: as above
Procedure, shortened: as §1

Target | log2 fold change
PAICS (UniProt D6RF62) | inactive: -0.399
PDIA4, A0A499FI48 | inactive: -0.062
PCNX1 (UniProt Q96RV3) | active: -0.58
PANK3 (UniProt Q9H999) | inactive: 0.138
PCSK6 isoform 7 (UniProt P29122) | inactive: -0.1
PDP1 isoform 2 (UniProt Q9P0J1) | inactive: -0.02
PCYT2 (UniProt I3L1F9) | inactive: -0.132
PCSK7 (UniProt Q16549) | inactive: 0.187
PCNX3 (UniProt Q9H6A9) | inactive: -0.36
PARD3 (UniProt Q8TEW0) | inactive: -0.134
PANK1 (UniProt Q8TE04) | inactive: -0.011
PEX10 isoform 2 (UniProt O60683) | inactive: -0.011

compound: CCCc1cc(C)[nH]c(=O)c1CNC(=O)c1cc(-c2ccnc(N3CCN(C)CC3)c2)cc2c1cnn2C(C)C; test: as above
Procedure, shortened: as §1

Target | log2 fold change
PDCD2 (UniProt Q16342) | inactive: 0.086
PDIA4, A0A499FI48 | inactive: 0.025
PCNX1 (UniProt Q96RV3) | inactive: -0.035
PCBP2 (UniProt F8VZX2) | inactive: -0.098
PCSK6 isoform 7 (UniProt P29122) | inactive: -0.25
PAGE4 (UniProt O60829) | inactive: -0.328
PDE3B (UniProt Q13370) | inactive: -0.114
PCMTD2 (UniProt Q9NV79) | inactive: 0.197
PCM1 isoform 2 (UniProt Q15154) | inactive: -0.3
PAF1 (UniProt Q8N7H5) | inactive: 0.204
PANK1 (UniProt Q8TE04) | inactive: 0.031
PALM (UniProt O75781) | inactive: 0.024
PABPN1 (UniProt Q86U42) | inactive: 0.077
PEX10 isoform 2 (UniProt O60683) | inactive: 0.02

From the supplement of paper PMC10849652
